Assay [1] has as its target amyloid precursor protein (endogenous, mouse brain) (mouse (endogenous in brain synaptosomal fraction and brain homogenate)) (UniProt P12023). In words: pull-down; competition: calreticulin peptide added to GST/C-domain and a detergent extract of mouse brain homogenate; glutathione-agarose; Western blot with APP antibody A8967; only the binder purified.
Assay [2] deals with recombinant rabbit calreticulin (rabbit) (UniProt P15253). In words: ELISA; recombinant calreticulin coated (5–10 µg/ml, polyvinylchloride 96-well plates); biotinylated peptides at different concentrations in PBS-T with 1% BSA, 1 mM CaCl2, 1 mM MgCl2, 1 mM MnCl2, 1 h, room temperature; HRP-coupled streptavidin; both purified. A general note: In an ELISA, binding on a coated surface is turned into a signal by an enzyme label.

Protein sequences, listed by entry. Tags and fused reporters are not part of them. Residues count along the entry.
UniProt P15253, residues 18-418: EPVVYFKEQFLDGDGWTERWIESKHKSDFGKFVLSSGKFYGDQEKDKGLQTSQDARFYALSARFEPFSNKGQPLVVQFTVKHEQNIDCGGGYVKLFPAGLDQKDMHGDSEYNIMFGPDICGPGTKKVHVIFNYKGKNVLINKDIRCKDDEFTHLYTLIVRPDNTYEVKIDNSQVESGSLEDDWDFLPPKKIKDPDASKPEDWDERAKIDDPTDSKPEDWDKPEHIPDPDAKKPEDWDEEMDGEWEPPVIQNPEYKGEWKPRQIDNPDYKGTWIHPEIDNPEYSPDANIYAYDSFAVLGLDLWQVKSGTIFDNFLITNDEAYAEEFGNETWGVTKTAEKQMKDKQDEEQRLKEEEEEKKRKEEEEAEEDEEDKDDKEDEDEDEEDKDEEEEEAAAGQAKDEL

No constants are given. Whether binding was seen depends on the method and setting. For some assays here: In cells and extracts the contact can be indirect. Some entries that bind do so weakly or less than the wild type.

For FLITNDEAYAEEFGN [calreticulin peptide comprising amino acids 330–344], the binding entry in assay [1] was “binds”.

TNIKTEEISEVKMDAEFGHDSGFEVRHQKC (biotin on the N-terminus (biotin-TNIK...HQKC-OH)) [synthetic biotinylated APP-β peptide comprising the β-secretase cleavage site of APP]: in assay [2], the binding result is recorded as “no binding”.

The record behind these values is PMC3621835.
